In paper PMC6563020, “Protein Redox State Monitoring Studies of Thiol Reactivity” (Antioxidants, 2019):
No constants are given. Whether binding was seen depends on the method and setting.

What was measured:
[1] = target: Human peroxiredoxin 6 (Prx6) (human (endogenous in human pulmonary artery smooth muscle cells)) (UniProt P30041); test: non-reducing SDS-PAGE and immunoblot; human pulmonary artery smooth muscle cells treated with H2O2 for 15 min; lysates labelled with Protein-SHifter Plus, SDS-PAGE without BME, immunoblot with Prx6 antibody
[2] = target: Rat peroxiredoxin 6 (Prx6) (rat (endogenous in rat pulmonary artery smooth muscle cells)) (UniProt O35244); test: condition: only cells treated with H2O2 (200 μM) for 15 min; SDS-PAGE and immunoblot; rat pulmonary artery smooth muscle cells treated with H2O2 (200 uM) for 15 min; lysates on SDS-PAGE, immunoblot with Prx6 antibody; no Protein-SHifter

B1: Human peroxiredoxin 6 (Prx6) (enzyme, UniProt P30041 1-224)
chain: MPGGLLLGDVAPNFEANTTVGRIRFHDFLGDSWGILFSHPRDFTPVCTTELGRAAKLAPEFAKRNVKLIALSIDSVEDHLAWSKDINAYNCEEPTEKLPFPIIDDRNRELAILLGMLDPAEKDEKGMPVTARVVFVFGPDKKLKLSILYPATTGRNFDEILRVVISLQLTAEKRVATPVDWKDGDSVMVLPTIPEEEAKKLFPKGVFTKELPSGKKYLRYTPQP
binding [1]: no binding (condition: cells treated with H2O2 for 15 min)

B2: Rat peroxiredoxin 6 (Prx6) (enzyme, UniProt O35244 1-224, looked up)
chain: MPGGLLLGDEAPNFEANTTIGHIRFHDFLGDSWGILFSHPRDFTPVCTTELGRAAKLAPEFAKRNVKLIALSIDSVEDHFAWSKDINAYNGAAPTEKLPFPIIDDKDRDLAILLGMLDPAEKDEKGMPVTARVVFIFGPDKKLKLSILYPATTGRNFDEILRVVDSLQLTASNPVATPVDWKKGESVMVLPTLPEEEAKQLFPKGVFTKELPSGKKYLRYTPQP
notes: Peroxiredoxin 6, rat, one cysteine only (catalytic Cys47); also called rat Prx6; source: endogenous, rat pulmonary artery smooth muscle cells (Cell Applications), in lysate
binding [2]: no binding
